Laboratory results as given in paper PMC9020716.
These are yes or no findings as the source states them, for the method shown. Binding seen in cells or lysates may run through a third protein. Here binding means that the protein was enriched with, or labelled near, the bait; the list need not be complete. For part of these data: No binding means not detected with the bait. Tags and fused reporters may be left off the sequences shown.

Amino acid sequences for entries named in this document (tags omitted).
UniProt G5EGK8: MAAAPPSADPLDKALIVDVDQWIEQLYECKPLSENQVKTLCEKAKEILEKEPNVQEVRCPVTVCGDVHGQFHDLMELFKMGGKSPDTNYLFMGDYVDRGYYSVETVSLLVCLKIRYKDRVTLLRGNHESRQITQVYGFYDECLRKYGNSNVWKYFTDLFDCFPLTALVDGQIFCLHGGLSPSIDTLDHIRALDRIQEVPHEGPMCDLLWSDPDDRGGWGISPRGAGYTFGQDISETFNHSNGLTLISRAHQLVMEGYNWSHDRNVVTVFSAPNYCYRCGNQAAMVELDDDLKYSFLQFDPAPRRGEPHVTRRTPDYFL
UniProt P34475: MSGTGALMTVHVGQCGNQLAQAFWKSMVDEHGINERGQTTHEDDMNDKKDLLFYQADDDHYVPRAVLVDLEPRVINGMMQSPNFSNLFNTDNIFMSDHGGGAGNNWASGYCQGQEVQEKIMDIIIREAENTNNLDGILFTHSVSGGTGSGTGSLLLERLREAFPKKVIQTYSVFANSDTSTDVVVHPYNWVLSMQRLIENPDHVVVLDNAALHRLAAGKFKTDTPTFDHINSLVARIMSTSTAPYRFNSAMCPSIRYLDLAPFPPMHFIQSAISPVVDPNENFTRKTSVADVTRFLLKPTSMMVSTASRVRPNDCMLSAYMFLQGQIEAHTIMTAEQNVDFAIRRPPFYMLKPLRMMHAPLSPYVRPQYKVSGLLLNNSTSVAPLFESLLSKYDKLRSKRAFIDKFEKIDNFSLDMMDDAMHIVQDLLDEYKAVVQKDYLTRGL

T1: GFP:TurboID:PLK-1 (C. elegans) (UniProt P34331)
T1 sequence: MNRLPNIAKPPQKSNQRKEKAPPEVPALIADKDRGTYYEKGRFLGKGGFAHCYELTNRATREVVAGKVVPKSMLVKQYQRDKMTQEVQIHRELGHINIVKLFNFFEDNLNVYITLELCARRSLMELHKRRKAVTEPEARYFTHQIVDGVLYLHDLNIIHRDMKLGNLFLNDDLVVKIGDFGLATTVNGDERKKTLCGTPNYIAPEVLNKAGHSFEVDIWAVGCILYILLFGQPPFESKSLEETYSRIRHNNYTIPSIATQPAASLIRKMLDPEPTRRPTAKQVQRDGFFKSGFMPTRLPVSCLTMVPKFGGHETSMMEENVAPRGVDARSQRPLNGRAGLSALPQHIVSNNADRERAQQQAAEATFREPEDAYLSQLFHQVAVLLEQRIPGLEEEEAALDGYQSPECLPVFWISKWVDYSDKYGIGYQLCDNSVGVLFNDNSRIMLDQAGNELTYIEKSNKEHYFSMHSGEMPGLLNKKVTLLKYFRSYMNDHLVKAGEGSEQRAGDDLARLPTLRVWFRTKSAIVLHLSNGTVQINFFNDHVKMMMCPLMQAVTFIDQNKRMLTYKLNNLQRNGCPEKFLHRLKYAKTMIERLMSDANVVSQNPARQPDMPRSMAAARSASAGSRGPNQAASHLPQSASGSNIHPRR

T2: GFP:TurboID:SPD-5 (C. elegans) (UniProt P91349)
T2 sequence: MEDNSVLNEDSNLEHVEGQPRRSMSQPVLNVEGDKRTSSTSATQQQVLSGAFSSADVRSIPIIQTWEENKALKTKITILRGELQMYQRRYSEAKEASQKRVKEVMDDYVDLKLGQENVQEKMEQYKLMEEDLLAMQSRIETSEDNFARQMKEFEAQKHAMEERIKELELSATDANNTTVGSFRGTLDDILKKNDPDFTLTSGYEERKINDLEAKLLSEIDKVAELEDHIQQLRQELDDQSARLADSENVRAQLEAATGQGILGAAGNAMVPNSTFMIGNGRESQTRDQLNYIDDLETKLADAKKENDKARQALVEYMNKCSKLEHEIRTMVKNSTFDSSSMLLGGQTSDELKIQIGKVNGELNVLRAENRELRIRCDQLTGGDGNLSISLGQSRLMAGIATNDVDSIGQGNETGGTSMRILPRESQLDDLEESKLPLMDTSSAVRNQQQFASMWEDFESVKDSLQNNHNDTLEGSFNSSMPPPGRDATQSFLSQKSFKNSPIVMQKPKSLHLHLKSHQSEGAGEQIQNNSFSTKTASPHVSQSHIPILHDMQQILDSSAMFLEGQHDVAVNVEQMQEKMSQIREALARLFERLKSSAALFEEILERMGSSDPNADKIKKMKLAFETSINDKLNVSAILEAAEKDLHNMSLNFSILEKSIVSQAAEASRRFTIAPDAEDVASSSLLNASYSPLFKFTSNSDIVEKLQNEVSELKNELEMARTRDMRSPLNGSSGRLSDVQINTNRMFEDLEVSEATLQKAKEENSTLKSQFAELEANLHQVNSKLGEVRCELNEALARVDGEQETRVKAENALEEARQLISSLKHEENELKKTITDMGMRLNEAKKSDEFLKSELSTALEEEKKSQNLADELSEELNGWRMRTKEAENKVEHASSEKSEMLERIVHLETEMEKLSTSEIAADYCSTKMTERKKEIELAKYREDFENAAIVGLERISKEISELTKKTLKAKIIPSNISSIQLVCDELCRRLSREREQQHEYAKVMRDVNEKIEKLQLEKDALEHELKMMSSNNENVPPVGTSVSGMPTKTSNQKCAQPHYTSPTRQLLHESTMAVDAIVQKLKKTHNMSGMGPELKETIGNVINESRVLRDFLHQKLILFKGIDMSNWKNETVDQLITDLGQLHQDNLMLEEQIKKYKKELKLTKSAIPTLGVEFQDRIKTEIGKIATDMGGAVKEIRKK


Biological target: T1, GFP:TurboID:PLK-1 (C. elegans)
Assay: proximity labelling; direct TurboID: GFP:TurboID fusion of the bait expressed as a transgene in mixed-stage C. elegans embryos, no supplemental biotin; insoluble (cytoskeletal) fraction resolubilised under denaturing conditions, streptavidin pull-down, LC-MS/MS; three replicates against the GFP:TurboID control; Log2 enrichment >1, p-value <0.05

binding | Molecule
binds | CYK-1 (C. elegans (endogenous in embryos))
binds | RGA-2 (C. elegans (endogenous in embryos))
binds | APR-1/APC (protein, UniProt Q21227 1-1188) MSSSSSDENETTIHRTGSNTGGSGIYSQPRAGSSKRTSNVRHDVSDVDDEEEHYARFREDTAIEVDDAITVLLSSLHFEHKRDIVPTDEDDNKLRELHEKIFALITSESDVNRKRRLKKALPASNCVREQVYYLRRKPSTPPASYYHRLNAALHTIVKESFGEEYRKVATVLGLVEALAEVLILEVHTFGINETNPGEHRNIRKLIANALTNLTYGQIHSKRRLCSYDGFIRCVVRIVIESPNITQVYAGLIRNLSWNADSGMSEALQPTVHALSIAAVHAHTHRFDVTATLSALWNLAGHSVENKRTICDTPNCLKVLASLLSPDARFTSLVDSATGILKYVSQYLANTSTHLELRSLLITRMLTLLKSASFTCVTNTLGAIANLIVKDPHMQQMIRQDMAAVQQLNVLRNSNRDDIRTAVKSVLNTLNQPCSHRYGDMSHSVGGGATGMQMLSEPQLQMQTSHHAYHGTASPRLLSLRATRASPGKYIQPQAQQQLIQTPQVDQRSSSLPRHFAVQRNGFVMAQSYNQQMDQHQQQQMIYQLQQQQQIMFQTEDQAQMEHHQQIMYLQQQQQQFHQIQQQQQMQKAQEADPVPPTDDDLDIPTSTVMGTRSNSERSLGSMNPGSVMTNWNSSLDTAANSSRALSPVSYNDIPASPTMCAQVFNLPKSTESEHHQLTSQQQNTTHYSSGSANTMTRSDGATTVPMDNIITPTYAILNPILVHEQTPNGTVPRKTSEELDSPDDVLPGPSLEEEEGDYAIIGGAAQKTDDELLTRSIQSEMPTSSSTPKMKVSPRLNGFFSPTQKTTSSPAWSHPDTSPIPKSSSHRTQPNRRQDASDADRLLMESIMSEMPKSRIISPRLAGTQQYLEPEPERRSHSKNEEADRRDAFTASHEPSDHNGIDVARGSDWSPQQQLHRMESLESQASSEDSFGLTAEEPNSSTSGAAANTMRFDDEIDASLPMDCVDDDDYDYTYDHFEDYEDEEDPDATQFDDGVDAQLTIDCSMISSGSGSSQRNETTTTSRDSKALATSTPKGSASSLPGVRQATRVSTNGKSRLPVPKTNGSLVDKNPKPIIASRRPRLPPKPTLLKDKHYPEEDSIENQTRDDTIYVNAPVVEAEQERIYMNALKQQKNIEQSPSIGNGSPIAKSAIVTPYNYQKPPFTGRNNGEMSNEKSVTPNPKQMLVTIV
binds | CLS-3/CLASP (protein, UniProt Q03609 1-983) MTSRMQPKSGVYSVSKADFTKIFEDVPKVPITSAVDLRNKFDAVRIILSNSSEDWNKRQTQLKTVRSLVIHGEKVVDRPTMIAHLVQLLGCFELAVKDLRSQVLREAAITCSFIVSKYGIETHSIGEDILVPAMSQVAVSTKIMATSASTLTEFIVEYVQTRQVFTILSSFSTSKDKSQRRQLAALLEIVISKWSDRIKKQIMRQICELIKSAINDADSETRAAGRRAFAKLDEMHSEEADALYLELDHSKQKMLRGGDAASSWASVNSEKGSIPIRSKLSAGSKAHMNISAKFLAQRSASAIDPKATKFAGPSRLVRPTSTKTMARQDTSPAGCKYSNFISMFFKTLLLSAKIPYPNRPGSRTRTSSITSTDSRDTSPTRRNSPLPPETQKARVKYGNGSFFAKLGMPDTTDDDEFLLPIRIRSPLKTPTIEAHDKVSQVLKECCSSSVSEKKEGIKKLLPIVADTSLNPIEIKNIGNCLNRLLSDASNTMVLEIYSIFVRTHSSRLSEWLRLALAKLFARKAAETLPNTKKQIGHTLNVILECFNAHHQLVTVCELMCDPIHLMVPKARVVLLEYLTSLLDEYTEPGASINAKELKTAIRKMLTWASDPRLSILLTPHVEKAICSMFCVNVADFSALISDLDSEQKNWIHQTLQRNGLENGISSNNIATNSGATASRETSNTSFQKESTSFGLPEFGARKGGTGVNLGSLNISNNLALSRLEEQSTSRLMEKVNLNSTVTLPPDTLEKIQNVQDLLQKMRSSENADEQESAISSIYMMICDGGFGVWEQCYAKLLLNLFEILSKSRSENNKKMCLRILGKMCTAQAAKLFDSTEMAVCKVLDAAVNTNDATTALAVEDCLRTLATHLPLSNIINIAKVILNQEPIDDERASLVLKMVTRLFEELPAEELNNIVDDITPTIIKAYQSTSSTVRKTVVYCLVAMVNRVGEQRMTPHFTKLPKAMTNLIQVYVNRAISTSLPRL

Biological target: T2, GFP:TurboID:SPD-5 (C. elegans)
Assay: as above

binding | Molecule
no binding | LET-92 (from UniProt G5EGK8 1-318) (enzyme)
no binding | γ-tubulin (TBG-1 in C. elegans) (from UniProt P34475 1-444)
no binding | RSA-1 (protein, UniProt O02217 1-404) MPTDEPSKRKSILPTIPTSLMLKKSNEALSDFERTFNDRVMDIFAENRRIDVEEFKKNAECFLNIIRSNKIDLNWGEGGESRYVTITRLMKILKTSPQSIKDLLPHNTVSNFVKITNYNLTIDITLLEELVRTVIHAEESYIKLLPFSENSTEISSYSLQDFVATHFIPIMIEEPENPVYYTAYAVGTIFFLLGARRRDCVYLKDLLASTLLLQLEECIHAENHCLSPPKIDVFTVAQFRTTLSEFRFLDSQRKGLLAPADLKFFRDGIFNEVFTKRIFEISITYEDGRIDFKAFVDFVTALKFRHTTASAKYHFEILDLKDDGLLDEEEIRSISSFQLQNLPDYVPEDNSVNPEVATAELRDMMRLNQNGITLEEFLANRMNSTFAGFLSNSDDYMKYERREQ
binds | SPD-2 (protein, UniProt P91870 1-824) MEDDAPMNLCNEQFEEIEDSPIDDNDNESFYNADGDVELEEEEVHETPKNFKNGGRFKTNMTNPKVNDLTTIEEKNEDLRSAASSRSASRPASVMSDKSFSSQFEFQSGGENAIEEYTNQVFADENKADLLFPETSKFMNGASPPKDKHHSWEPSIHHYDKQPPPDIQTNSPVFGNLNHRKNKLIPQARAKPGANDNEIVERDNDENVPTTSDKSAFITSPMNSTNHDEKTSTPKRPTNRKIGQYQGPNFDLSSIYVGSPQHQNTSISTGQQMPTSSYSHAHSETMMTNQTINESMVRRVLNGNNKNQDLFAALEEARKRRAAQPSKPDFRINTTRTRVPIKPTSARHSGNVVSSTSNDNTTAASSKDLTTSRKAMETFRQNASMADATNSNTASMTSILSTISTARTDISRSSRNHGGGFSNTSVSTVIPANNGNVSLSHGRDGRDSVSSVRTMSRASSTSTVYAGSTFSGVSKPLRIHAKRVAFGCVAVGETLRVEVEVENISDRQCLVRASTDSTTPVYQILDNKLTMVDPKKSIKFQVSFSPSSVGRYQVIMSIEVPAQNFIHKIPMWGNGGIAKFVPTSPDLQQTINQSEYAMCTSCAKRISFKISNSAGTRDGFAMIKVFDSAMRQLPDGCVAFFPAPGFIVKKKSDKRVDIRIDSSYIDLHDENNFRTSSSLSTASTTSSFQRRILPGAKFFVHVVWGEETMRTRLRLLEVRTGQHQLIDGHDFTSFQFSDEEVLRAVPVGFPAIKPEDRDLFAASYRSFFINFFTSTTEFRAATSRKKKEICSNDDSTLLETTAFRNQTFVNDVTIVPNTRFSNRK
no binding | PAA-1 (protein, UniProt Q09543 1-590) MSVVEEATDDALYPIAVLIDELRNEDVTLRLNSIRKLSTIALALGVERTRNELIQFLTDTIYDEDEVLLVLAEQLGNFTPLVGGPDHVHCLLLPLENLATVEETVVRDKAVESLRKIADKHSSASLEEHFVPMLRRLATGDWFTSRTSACGLFSVVYPRVSPAIKSELKSMFRTLCRDDTPMVRRAAAAKLGEFAKVFEKTAVIEGLHSSLTDLHVDEQDSVRLLTVESAIAFGTLLDKANKKKLIEPILIELFDDKSWRVRYMVAEKLIEIQNVLGEDMDTTHLVNMYTNLLKDPEGEVRCAATQRLQEFALNLPEDKRQNIICNSLLNVAKELVTDGNQLVKSELAGVIMGLAPLIGKEQTVSELLPIYMQLLNDQTPEVRLNIISSLDKVNEVIGAAQLSTSLLPAIVGLAEDGKWRVRLAIVQFMPLLASQLGQEFFDEKLLPLCLNWLTDHVFSIREASTLIMKELTQKFGGQWASTNIVPKMQKLQKDTNYLQRMTCLFCLNTLSEAMTQEQILKEIMPIVKDLVEDDVPNVRFNAAKSLKRIGKNLTPSTLTSEVKPLLEKLGKDSDFDVRYFSEEAKNSLGL
